Laboratory results taken from paper PMC8752836.
No constants are given. Whether binding was seen depends on the method and setting. In cells and extracts the contact can be indirect. Some entries that bind do so weakly or less than the wild type.

Chains of the proteins cited; added tags and fusions are not shown.
UniProt Q8WYP5: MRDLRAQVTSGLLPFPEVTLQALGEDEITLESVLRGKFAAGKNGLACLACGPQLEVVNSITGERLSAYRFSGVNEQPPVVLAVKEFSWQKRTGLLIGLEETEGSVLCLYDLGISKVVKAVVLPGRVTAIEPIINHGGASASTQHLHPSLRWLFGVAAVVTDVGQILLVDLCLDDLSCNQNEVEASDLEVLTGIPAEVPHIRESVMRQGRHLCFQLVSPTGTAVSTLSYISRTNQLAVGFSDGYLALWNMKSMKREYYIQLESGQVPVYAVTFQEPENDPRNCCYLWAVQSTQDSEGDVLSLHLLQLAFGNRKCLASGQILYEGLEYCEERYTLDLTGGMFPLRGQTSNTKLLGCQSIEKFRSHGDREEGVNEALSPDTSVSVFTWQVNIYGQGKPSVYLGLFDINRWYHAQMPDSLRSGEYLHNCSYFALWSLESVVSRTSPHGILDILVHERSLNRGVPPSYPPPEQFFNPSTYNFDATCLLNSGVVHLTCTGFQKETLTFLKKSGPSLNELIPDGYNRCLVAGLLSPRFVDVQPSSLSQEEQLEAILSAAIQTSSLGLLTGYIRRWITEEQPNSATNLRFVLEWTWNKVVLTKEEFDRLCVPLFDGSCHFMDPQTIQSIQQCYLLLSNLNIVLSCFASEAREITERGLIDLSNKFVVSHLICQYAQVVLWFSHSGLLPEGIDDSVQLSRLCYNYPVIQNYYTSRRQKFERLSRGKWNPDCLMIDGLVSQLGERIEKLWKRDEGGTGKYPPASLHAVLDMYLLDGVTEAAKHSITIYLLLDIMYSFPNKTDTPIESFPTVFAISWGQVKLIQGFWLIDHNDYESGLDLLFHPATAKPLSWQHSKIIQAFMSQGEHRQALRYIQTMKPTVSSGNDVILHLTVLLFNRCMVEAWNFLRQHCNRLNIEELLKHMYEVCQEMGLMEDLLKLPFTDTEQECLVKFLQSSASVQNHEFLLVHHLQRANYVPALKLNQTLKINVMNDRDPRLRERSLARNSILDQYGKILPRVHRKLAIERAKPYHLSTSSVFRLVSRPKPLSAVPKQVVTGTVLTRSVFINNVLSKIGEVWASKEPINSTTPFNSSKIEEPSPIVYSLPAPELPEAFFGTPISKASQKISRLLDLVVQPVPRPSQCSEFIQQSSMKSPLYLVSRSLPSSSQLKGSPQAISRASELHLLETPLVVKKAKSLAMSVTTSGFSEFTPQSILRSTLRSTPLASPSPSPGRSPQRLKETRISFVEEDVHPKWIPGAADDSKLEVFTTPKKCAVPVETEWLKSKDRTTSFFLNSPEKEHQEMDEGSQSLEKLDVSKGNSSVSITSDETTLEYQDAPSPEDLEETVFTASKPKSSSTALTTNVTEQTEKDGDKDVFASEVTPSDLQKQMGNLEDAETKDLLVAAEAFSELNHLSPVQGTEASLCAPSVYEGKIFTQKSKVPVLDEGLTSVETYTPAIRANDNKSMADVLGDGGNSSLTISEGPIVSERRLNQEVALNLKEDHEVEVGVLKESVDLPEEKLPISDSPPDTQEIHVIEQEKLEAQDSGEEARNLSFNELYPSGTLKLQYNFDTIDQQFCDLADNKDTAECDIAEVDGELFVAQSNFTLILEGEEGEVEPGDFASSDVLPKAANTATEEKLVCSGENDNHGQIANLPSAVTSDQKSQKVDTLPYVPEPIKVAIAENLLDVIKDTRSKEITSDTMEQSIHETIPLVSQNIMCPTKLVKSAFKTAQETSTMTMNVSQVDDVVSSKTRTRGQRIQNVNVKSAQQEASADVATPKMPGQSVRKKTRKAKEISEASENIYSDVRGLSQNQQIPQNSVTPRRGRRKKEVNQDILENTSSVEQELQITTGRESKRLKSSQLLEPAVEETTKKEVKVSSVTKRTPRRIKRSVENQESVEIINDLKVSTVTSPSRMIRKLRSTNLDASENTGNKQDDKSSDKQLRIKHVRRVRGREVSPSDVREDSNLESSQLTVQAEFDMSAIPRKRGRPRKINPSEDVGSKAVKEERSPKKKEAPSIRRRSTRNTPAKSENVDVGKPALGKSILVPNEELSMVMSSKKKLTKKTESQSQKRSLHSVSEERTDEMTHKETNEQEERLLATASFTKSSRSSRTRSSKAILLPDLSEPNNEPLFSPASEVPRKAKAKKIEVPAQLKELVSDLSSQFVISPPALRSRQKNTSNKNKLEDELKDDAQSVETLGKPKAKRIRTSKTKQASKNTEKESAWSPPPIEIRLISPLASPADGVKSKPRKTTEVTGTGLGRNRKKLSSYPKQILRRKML

T1: CTCF (human (endogenous in HCT-116)) (UniProt P49711)
T1 sequence: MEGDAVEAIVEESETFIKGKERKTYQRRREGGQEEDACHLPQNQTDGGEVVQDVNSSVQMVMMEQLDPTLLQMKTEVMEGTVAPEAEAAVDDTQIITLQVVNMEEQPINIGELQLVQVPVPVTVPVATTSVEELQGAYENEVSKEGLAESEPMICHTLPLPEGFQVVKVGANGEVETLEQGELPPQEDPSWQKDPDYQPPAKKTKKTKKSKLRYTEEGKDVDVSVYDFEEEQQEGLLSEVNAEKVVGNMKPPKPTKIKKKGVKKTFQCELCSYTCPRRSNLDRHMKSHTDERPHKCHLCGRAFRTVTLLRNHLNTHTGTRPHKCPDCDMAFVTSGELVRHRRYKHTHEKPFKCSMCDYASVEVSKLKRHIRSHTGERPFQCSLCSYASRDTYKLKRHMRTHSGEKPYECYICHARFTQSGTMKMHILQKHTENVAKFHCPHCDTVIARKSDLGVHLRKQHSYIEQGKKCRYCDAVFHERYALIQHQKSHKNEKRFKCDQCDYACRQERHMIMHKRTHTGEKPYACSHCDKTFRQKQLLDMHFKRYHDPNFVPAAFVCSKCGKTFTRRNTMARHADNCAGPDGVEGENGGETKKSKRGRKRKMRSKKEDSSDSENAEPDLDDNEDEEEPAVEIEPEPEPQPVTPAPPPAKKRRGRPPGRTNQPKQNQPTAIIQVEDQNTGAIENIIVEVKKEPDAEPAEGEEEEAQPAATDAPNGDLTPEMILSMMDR

B1: NUP133 (protein, UniProt Q8WUM0 1-1156)
chain: MFPAAPSPRTPGTGSRRGPLAGLGPGSTPRTASRKGLPLGSAVSSPVLFSPVGRRSSLSSRGTPTRMFPHHSITESVNYDVKTFGSSLPVKVMEALTLAEVDDQLTINIDEGGWACLVCKEKLIIWKIALSPITKLSVCKELQLPPSDFHWSADLVALSYSSPSGEAHSTQAVAVMVATREGSIRYWPSLAGEDTYTEAFVDSGGDKTYSFLTAVQGGSFILSSSGSQLIRLIPESSGKIHQHILPQGQGMLSGIGRKVSSLFGILSPSSDLTLSSVLWDRERSSFYSLTSSNISKWELDDSSEKHAYSWDINRALKENITDAIWGSESNYEAIKEGVNIRYLDLKQNCDGLVILAAAWHSADNPCLIYYSLITIEDNGCQMSDAVTVEVTQYNPPFQSEDLILCQLTVPNFSNQTAYLYNESAVYVCSTGTGKFSLPQEKIVFNAQGDSVLGAGACGGVPIIFSRNSGLVSITSRENVSILAEDLEGSLASSVAGPNSESMIFETTTKNETIAQEDKIKLLKAAFLQYCRKDLGHAQMVVDELFSSHSDLDSDSELDRAVTQISVDLMDDYPASDPRWAESVPEEAPGFSNTSLIILHQLEDKMKAHSFLMDFIHQVGLFGRLGSFPVRGTPMATRLLLCEHAEKLSAAIVLKNHHSRLSDLVNTAILIALNKREYEIPSNLTPADVFFREVSQVDTICECLLEHEEQVLRDAPMDSIEWAEVVINVNNILKDMLQAASHYRQNRNSLYRREESLEKEPEYVPWTATSGPGGIRTVIIRQHEIVLKVAYPQADSNLRNIVTEQLVALIDCFLDGYVSQLKSVDKSSNRERYDNLEMEYLQKRSDLLSPLLSLGQYLWAASLAEKYCDFDILVQMCEQTDNQSRLQRYMTQFADQNFSDFLFRWYLEKGKRGKLLSQPISQHGQLANFLQAHEHLSWLHEINSQELEKAHATLLGLANMETRYFAKKKTLLGLSKLAALASDFSEDMLQEKIEEMAEQERFLLHQETLPEQLLAEKQLNLSAMPVLTAPQLIGLYICEENRRANEYDFKKALDLLEYIDEEEDININDLKLEILCKALQRDNWSSSDGKDDPIEVSKDSIFVKILQKLLKDGIQLSEYLPEVKDLLQADQLGSLKSNPYFEFVLKANYEYYVQGQI

Legend:
[1] = target: T1, CTCF (human (endogenous in HCT-116)); experiment: co-IP; 250 ug protein of HCT-116 nuclear lysate (Nuclear Complex Co-IP kit, Active Motif), pre-cleared, anti-CTCF or normal mouse IgG overnight at 4 °C, Dynabeads protein G; detection by Simple Western (WES); WT and D3/E4 cells; cells with DMSO or 10 µM BC21 for 16 h
[2] = target: T1, CTCF (human (endogenous in HCT-116)); experiment: proximity ligation; in situ proximity ligation assay (ISPLA) on HCT-116 cells fixed with 1% paraformaldehyde; mouse anti-CTCF with rabbit anti-AHCTF1 or anti-NUP133; cells with DMSO or BC21; no primary antibody as background control

Molecule	binding [1]	binding [2]
AHCTF1 (from UniProt Q8WYP5 1-2266)	binds	binds
B1	binds	binds
